Article PMC8034646
No constants are given. Whether binding was seen depends on the method and setting. For some of these results: In cells and extracts the contact can be indirect. For some of these results: Binding calls can cover weak binding; strength is not graded here.

By UniProt entry, the sequences of proteins in these tests, tags left out. Where a name states a change or a piece, a line headed by the entry shows the natural chain unless it says otherwise.
UniProt Q9C7M2: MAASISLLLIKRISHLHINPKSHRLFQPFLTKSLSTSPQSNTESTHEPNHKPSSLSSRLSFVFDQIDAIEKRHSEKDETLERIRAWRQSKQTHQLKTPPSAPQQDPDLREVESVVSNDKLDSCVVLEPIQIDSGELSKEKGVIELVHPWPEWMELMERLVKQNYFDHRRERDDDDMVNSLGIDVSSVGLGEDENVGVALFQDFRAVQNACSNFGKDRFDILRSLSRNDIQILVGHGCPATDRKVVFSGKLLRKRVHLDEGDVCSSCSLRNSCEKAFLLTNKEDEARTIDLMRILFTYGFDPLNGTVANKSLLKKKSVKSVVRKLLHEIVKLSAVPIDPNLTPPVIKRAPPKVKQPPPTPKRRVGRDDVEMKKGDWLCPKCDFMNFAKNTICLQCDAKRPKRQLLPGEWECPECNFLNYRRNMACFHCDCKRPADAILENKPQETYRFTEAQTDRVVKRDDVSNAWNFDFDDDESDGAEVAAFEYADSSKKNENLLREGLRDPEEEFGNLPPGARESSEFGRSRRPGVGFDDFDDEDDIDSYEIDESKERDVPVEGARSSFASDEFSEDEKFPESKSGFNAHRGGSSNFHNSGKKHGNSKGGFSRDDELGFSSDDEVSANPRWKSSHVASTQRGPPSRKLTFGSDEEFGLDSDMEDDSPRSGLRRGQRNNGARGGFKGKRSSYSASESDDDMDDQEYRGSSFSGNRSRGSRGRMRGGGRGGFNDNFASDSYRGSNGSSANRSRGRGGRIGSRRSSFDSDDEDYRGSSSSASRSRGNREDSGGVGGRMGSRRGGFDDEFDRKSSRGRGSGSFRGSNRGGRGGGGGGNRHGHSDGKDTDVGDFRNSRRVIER

B1: MAT2 (protein, UniProt Q9FJR9 13-735)
chain: WLKPSSTYTNVYCFVTNPPLISNPNNGSAIFRYLSYFAPQQRRQQQQAPDPDDPANLLKEDGVSLCSQMWLENFKEPDKTATNLTSYLRRFELWVLAYQKVCCDELGAYVPRSSIQRSALENLLALRNSVLDDRFKWGSRLDFYIKSPRDKTDYESLSKRKIKAILTTTQPTPFQDRIVQEVLLMILEPIYESRFSQKSFAFRPGRTAHTVLRVIRRNFAGYLWYVKGDLSVVLDGMKVGFVISSLMRDVRDKKVIDLIKSALVTPVVTSKVEDGEKKKTKKRKYQKKRVLAEDEPKPDPYWLETFFGFAPEEAGKSPQWGHCGILSPLLVNVCLDELDRWMETKVKDFYRPSKSDVIWNNPEGEADQGNTSWPEFVPTSGPDKTRKMDYVRYGGHILIGVRGPRADAATLRKELIEFVDQKYMLRLDNENLPIEHITKGIMFLDHVLCRRVVYPTLRYTATGGKIISEKGVGTLLSVTASLKQCIKQFRKLLFIKGDRDPDPQPCFRMFHATQAHTNNQMNKFLTTIAEWYRFADNRKKIVNFCSYIIRGSLAKLYAAKYKLRSRAKVYKFANRNLSLPLLQKKGQSPEYQNLLRMGLAESVDGLVYTRMSLVPETDYSPFPGNWRPEHEKFLIEYLTLDEPKTLEEQKRFIREKGLVSPQDYTSMLVWNYKRNAIPMDQVSILKDQPFLLGSSSTYNRDNDDQKNKEEDEDSEDGLRIARM
B2: mTERF15 (protein, UniProt Q9C6A1 26-445)
chain: SSRILTPINQSHYRKRILLANLLQRYGFPPSSLQHFLSRNNHLLNSDLVETEISLGILLSLKIPQKSLVSLISDCPNVLRSEFLRKWRVPLSNCGKHGVVSSSAIKSVLEHSSRIGIGPDKFNECVRVLKSLGFCDSTVSRILSSFPGVLLVNEIEIRRKIEFLVGIGIARDNIERFFHVFPEVLGIGTETRLKPLLDEFMKMGFSKDDVKKEIAREPRVLGLELGELPRCLELINTLKCREVIRVSIISEGAFRAGFEVKLRVDCLCKYGLIRRDAFKVVWKEPRVILYEIEDIEKKIEFLTNRMGFHINCLADVPEYLGVNLQKQIVPRYNVIDYLKLKGGLGCDIGLKGLIKPSMKRFYNLYVMPYPECERIFGKRKENVRVNKRHPAGLWKLMKPPSNLTTKEDVQNMKSFIESLA
B3: RUG3 (protein, UniProt Q9FJG9 23-445)
chain: RSGGGANTKVPILYTSPDIDSDPVTLQLFSWGRGASGQLGGGIEEIRMYPSPVANLLFRSDQSFSLAQTPGRIDADSSSFRIGISCGLFHSGLTIDGDLWIWGKGDGGRLGFGQENSVFVPNLNPLFEEHSIRCIALGGLHSVALTHQGDVFTWGYGGFGALGHKVYTRELVPRRVDDSWDCKISAIATSGTHTAAITESGELYMWGREEGDGRLGLGPGRGPNEGGGLSVPSKVKALTVPVASVSCGGFFTMALTKEGQLWNWGANSNYELGRGDNLGGWEPMPVPSLEGVRITQIACGGYHSLALTEEGKVLSWGHGGHGQLGSSSLRNQKVPTEIEALADKKIVFIASGGSSSAAITDGGELWMWGNAKDFQLGVPGLPEIQTTPVEVNFLTEEDECQPHKVISISIGASHALCLVSRSP
B4: WTF9 (protein, UniProt Q9ZUZ6 25-387)
chain: VDVYMKWKRDPYFDNIEHILRSSQLKSVVSLKNCIVQEPNRCIPISAISKKTRQFDVSTKIAHFLRKFPSIFEEFVGPEYNLPWFRLTPEATELDRQERVVYQTSADDLRDRLKKLILMSKDNVLPLSIVQGMKWYLGLPDDYLQFPDMNLDSSFRFVDMEDGVKGLAVDYNGGDKVLSVLQKNAMKKRRGEVSLEEIEFPLFPSKGCRLRVKIEDWLMEFQKLPYVSPYDDYSCLDPSSDIAEKRVVGFLHELLCLFVEHSAERKKLLCLKKHFGLPQKVHKAFERHPQIFYLSMKNKTCTAILREPYRDKASVETHPVLGVRKKYIQLMKNSELILKSRRNSFGFRDEGVVDKDLDLDFEG
B5: mTERF15 (protein, UniProt Q9C6A1 1-445)
chain: MASKLKTFINLRDYPITLFNQIRSLSSRILTPINQSHYRKRILLANLLQRYGFPPSSLQHFLSRNNHLLNSDLVETEISLGILLSLKIPQKSLVSLISDCPNVLRSEFLRKWRVPLSNCGKHGVVSSSAIKSVLEHSSRIGIGPDKFNECVRVLKSLGFCDSTVSRILSSFPGVLLVNEIEIRRKIEFLVGIGIARDNIERFFHVFPEVLGIGTETRLKPLLDEFMKMGFSKDDVKKEIAREPRVLGLELGELPRCLELINTLKCREVIRVSIISEGAFRAGFEVKLRVDCLCKYGLIRRDAFKVVWKEPRVILYEIEDIEKKIEFLTNRMGFHINCLADVPEYLGVNLQKQIVPRYNVIDYLKLKGGLGCDIGLKGLIKPSMKRFYNLYVMPYPECERIFGKRKENVRVNKRHPAGLWKLMKPPSNLTTKEDVQNMKSFIESLA

The binders below were run against OZ2 (Arabidopsis) (UniProt Q9C7M2) (assay: split reporter; BiFC with nYFP and cYFP fusions (pEXSG-nYFP, pEXSG-cYFP) transiently co-expressed with P19 in agroinfiltrated N. benthamiana leaves; fluorescence microscopy 2-3 days after infiltration).

**Q.** B1 was tested. Which binding did it give?
**A.** binds

**Q.** B2 was tested. Which binding did it give?
**A.** no binding

**Q.** Which binding does the source give for B3 here?
**A.** no binding

**Q.** With B4 as the binder, how does the binding read?
**A.** no binding

What follows are binders tested against OZ2 (Arabidopsis) (assay: two-hybrid; Gal4 AD (pGADT7GW) and BD (pGBKT7GW) fusions in mated PJ69-4a/PJ69-4α diploid yeast; growth on -Leu -Trp -His -Ade plates, dilution spots, imaged after three days at 30°C; empty vectors as negative controls).

**Q.** How did the binding turn out when B3 was run?
**A.** no binding

**Q.** For B4, which binding is on record?
**A.** no binding

**Q.** How did the binding turn out when B5 was run?
**A.** no binding
